# Test results reported in the supplement of paper PMC6411743.
# The chains behind the UniProt entries cited, without tags or fusion partners. Where a name states a change or a piece, a line headed by the entry shows the natural chain unless it says otherwise.
# UniProt P50851: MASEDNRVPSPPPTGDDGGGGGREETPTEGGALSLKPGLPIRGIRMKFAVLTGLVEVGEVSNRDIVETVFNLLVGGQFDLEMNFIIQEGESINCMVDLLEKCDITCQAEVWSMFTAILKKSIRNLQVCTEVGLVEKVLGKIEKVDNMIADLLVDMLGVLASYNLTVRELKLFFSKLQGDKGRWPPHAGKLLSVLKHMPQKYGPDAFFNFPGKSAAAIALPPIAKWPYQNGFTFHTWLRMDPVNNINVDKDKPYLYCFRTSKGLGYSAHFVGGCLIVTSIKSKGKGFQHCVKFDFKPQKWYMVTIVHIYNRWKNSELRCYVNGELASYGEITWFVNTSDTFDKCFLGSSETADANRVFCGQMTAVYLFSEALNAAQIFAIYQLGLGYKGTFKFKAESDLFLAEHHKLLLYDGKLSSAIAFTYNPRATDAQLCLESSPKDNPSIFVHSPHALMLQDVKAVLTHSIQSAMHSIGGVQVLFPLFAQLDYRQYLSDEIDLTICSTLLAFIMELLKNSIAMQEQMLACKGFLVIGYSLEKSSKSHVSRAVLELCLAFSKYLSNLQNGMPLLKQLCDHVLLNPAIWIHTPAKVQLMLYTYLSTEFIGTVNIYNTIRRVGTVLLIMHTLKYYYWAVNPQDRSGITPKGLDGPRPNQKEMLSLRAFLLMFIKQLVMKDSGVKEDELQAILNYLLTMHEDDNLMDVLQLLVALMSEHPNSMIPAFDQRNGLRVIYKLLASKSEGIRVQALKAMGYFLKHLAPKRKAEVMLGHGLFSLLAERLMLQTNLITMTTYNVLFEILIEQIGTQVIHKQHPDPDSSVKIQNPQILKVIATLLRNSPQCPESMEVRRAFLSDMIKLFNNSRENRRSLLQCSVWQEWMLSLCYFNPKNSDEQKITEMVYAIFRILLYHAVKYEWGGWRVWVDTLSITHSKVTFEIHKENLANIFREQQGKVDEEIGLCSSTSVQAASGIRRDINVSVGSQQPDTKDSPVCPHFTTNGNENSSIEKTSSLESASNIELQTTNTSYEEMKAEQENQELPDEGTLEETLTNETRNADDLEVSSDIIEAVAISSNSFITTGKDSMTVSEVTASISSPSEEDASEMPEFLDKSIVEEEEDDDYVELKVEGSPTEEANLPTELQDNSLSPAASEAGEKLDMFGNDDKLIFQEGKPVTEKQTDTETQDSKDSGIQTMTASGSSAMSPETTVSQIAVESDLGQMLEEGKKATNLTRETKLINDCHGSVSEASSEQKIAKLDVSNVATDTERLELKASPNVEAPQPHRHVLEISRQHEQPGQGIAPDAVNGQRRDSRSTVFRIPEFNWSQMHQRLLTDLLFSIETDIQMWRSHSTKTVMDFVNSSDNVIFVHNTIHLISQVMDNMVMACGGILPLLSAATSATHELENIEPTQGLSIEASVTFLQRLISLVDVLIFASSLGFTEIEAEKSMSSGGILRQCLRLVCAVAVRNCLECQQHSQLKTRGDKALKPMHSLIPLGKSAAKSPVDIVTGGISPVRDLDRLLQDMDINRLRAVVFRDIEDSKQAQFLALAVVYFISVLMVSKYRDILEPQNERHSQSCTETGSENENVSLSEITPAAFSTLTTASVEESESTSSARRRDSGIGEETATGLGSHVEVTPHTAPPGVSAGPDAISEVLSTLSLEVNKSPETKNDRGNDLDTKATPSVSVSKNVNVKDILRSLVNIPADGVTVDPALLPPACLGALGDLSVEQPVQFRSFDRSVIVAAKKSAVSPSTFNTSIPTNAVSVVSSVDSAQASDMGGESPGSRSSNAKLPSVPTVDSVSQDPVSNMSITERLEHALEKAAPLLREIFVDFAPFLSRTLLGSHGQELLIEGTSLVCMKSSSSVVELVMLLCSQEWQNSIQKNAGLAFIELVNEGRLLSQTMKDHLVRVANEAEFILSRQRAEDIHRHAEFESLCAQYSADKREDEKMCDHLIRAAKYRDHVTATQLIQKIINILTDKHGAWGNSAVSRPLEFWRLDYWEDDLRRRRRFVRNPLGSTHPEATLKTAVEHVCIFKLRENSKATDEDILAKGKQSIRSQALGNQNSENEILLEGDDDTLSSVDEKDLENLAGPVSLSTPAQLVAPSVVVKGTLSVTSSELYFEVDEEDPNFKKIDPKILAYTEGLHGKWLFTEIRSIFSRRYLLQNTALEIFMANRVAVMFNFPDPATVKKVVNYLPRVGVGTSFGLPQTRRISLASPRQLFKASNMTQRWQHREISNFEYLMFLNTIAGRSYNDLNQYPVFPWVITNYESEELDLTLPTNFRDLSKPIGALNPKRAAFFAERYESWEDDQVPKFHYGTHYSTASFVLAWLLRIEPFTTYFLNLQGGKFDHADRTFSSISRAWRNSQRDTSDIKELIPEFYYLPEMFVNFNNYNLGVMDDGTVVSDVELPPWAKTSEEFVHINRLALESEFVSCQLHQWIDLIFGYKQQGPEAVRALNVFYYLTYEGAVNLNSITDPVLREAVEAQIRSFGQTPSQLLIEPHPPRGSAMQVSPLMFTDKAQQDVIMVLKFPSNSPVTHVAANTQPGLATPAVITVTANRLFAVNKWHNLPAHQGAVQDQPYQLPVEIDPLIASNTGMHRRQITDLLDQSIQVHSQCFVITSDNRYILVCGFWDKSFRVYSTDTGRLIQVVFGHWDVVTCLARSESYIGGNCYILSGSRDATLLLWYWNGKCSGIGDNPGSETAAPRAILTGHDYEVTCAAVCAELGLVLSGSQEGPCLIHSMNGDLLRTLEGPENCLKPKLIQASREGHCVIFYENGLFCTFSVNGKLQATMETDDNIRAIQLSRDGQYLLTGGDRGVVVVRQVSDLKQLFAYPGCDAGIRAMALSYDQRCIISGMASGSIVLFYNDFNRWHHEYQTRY
# UniProt P52756, whole entry: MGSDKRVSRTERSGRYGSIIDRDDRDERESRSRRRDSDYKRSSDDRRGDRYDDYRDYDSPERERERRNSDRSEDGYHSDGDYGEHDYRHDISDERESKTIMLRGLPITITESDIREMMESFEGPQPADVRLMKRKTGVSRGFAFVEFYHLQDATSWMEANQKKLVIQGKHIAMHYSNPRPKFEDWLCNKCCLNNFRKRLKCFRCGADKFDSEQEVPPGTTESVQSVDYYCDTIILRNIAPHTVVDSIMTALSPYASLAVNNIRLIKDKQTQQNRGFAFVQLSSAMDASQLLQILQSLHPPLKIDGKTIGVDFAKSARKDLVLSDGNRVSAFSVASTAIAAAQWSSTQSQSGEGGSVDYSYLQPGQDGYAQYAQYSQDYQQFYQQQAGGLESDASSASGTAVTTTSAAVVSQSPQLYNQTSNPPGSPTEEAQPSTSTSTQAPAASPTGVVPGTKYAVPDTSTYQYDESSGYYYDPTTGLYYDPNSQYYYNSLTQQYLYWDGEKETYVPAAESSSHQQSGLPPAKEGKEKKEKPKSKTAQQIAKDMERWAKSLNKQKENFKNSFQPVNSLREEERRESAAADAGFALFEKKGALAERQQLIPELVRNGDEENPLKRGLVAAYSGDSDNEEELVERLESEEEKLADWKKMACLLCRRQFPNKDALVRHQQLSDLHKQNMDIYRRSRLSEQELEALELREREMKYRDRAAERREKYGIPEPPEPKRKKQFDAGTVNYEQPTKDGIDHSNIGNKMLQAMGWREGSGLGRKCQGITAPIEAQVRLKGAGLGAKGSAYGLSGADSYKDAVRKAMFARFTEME
# UniProt P52739: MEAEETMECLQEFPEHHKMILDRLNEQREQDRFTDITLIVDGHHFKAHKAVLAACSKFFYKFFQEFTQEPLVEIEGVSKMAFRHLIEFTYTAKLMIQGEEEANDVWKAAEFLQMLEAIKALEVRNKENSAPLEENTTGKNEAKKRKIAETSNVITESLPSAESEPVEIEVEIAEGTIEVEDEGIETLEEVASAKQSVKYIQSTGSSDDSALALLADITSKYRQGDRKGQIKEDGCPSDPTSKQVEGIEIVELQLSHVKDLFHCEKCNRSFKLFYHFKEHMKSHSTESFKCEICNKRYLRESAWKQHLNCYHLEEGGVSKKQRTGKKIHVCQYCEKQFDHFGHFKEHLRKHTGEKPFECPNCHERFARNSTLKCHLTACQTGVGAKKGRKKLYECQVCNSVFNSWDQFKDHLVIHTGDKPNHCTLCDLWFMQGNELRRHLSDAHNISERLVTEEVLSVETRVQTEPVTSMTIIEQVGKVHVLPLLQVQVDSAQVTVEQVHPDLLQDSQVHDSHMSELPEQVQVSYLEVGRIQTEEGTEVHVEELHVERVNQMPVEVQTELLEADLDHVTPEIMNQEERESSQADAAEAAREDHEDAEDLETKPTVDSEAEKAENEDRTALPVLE
# UniProt P48729: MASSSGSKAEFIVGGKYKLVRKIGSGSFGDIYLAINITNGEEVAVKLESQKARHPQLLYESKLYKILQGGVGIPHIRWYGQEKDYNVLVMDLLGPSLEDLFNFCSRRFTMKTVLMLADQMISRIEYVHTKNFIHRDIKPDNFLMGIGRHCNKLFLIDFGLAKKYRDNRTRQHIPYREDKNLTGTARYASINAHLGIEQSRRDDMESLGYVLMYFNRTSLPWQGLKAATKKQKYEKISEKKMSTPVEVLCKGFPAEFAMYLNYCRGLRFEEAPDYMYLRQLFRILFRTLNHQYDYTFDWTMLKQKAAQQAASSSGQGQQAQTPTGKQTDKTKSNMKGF
# UniProt P41134: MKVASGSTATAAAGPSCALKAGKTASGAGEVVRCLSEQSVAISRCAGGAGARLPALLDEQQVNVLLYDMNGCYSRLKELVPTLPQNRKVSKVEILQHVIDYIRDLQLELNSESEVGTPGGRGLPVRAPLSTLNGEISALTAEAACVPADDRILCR
# UniProt P51532, whole entry: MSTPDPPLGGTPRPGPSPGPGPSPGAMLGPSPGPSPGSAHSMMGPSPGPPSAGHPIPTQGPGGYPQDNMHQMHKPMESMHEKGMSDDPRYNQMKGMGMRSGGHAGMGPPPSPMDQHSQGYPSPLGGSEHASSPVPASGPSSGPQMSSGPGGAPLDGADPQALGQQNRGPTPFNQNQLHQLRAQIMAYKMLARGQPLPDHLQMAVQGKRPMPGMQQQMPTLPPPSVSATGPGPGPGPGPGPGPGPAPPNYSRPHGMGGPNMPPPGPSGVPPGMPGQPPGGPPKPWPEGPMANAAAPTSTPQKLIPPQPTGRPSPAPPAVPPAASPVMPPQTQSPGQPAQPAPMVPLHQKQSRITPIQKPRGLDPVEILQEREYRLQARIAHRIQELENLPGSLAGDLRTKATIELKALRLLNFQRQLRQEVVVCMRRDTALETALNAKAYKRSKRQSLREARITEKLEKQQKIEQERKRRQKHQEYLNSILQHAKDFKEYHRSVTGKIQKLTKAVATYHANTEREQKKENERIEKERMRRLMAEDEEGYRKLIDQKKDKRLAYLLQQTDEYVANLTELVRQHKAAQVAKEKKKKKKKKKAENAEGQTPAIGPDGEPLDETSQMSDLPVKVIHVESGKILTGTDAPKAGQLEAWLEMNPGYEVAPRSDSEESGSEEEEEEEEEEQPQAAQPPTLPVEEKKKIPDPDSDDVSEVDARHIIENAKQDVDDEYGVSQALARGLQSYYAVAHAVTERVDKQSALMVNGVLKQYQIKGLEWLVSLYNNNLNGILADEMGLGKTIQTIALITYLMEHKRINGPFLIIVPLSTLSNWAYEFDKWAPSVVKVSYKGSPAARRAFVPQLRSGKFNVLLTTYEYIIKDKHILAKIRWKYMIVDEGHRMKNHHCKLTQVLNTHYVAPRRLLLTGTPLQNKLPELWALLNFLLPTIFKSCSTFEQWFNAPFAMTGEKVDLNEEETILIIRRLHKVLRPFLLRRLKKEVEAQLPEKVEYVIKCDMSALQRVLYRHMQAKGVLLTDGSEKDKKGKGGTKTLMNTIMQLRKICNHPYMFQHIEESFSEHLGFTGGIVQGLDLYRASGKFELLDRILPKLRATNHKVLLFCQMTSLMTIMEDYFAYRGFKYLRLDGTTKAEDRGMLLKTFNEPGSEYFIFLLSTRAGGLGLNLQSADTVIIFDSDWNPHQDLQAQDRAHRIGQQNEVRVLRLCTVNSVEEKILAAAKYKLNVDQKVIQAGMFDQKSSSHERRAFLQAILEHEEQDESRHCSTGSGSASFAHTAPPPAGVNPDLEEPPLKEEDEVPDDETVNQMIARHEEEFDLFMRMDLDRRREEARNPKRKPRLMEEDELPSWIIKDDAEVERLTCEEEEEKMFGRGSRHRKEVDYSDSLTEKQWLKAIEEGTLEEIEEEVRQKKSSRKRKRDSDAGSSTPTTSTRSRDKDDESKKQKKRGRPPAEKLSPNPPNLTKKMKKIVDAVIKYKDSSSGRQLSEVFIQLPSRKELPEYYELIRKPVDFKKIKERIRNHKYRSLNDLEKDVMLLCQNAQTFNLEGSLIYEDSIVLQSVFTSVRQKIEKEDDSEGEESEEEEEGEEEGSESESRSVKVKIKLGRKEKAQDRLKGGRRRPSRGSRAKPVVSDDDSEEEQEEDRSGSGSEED
# ± gives the standard deviation of the averaged measurements. This is a selection; strong and weak results do not stand in their true shares.
# Compound: Nc1ncnc2c1ncn2[C@@H]1O[C@H](COP(=O)(O)OP(=O)(O)OP(=O)(O)O)[C@@H](O)[C@H]1O [adenosine triphosphate]
# Assay: NP40-soluble protein abundance relative to vehicle (solubility fold change) (ratio); higher = more soluble protein in presence of ATP
# Conditions: concentration: 6mM
# Method in brief: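 Eight concentrations, 0.1 to 10 mM, were tested on Jurkat crude lysate for 10 min at room temperature and then 3 min at 37 °C, in three independent experiments. The lysate was solubilised with 0.8% NP40 and benzonase, ultracentrifuged, and the supernatant TMT-labelled for LC-MS/MS. Each value is the fold change against the detergent-processed vehicle in its own replicate, from vsn-normalised intensities.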
row,Target,NP40-soluble protein abundance
1,RPL27A (UniProt P46776),0.77 ± 0.14
2,PREP (UniProt P48147),0.957 ± 0.13
3,UniProt P49916 and related entries,1.073 ± 0.0018
4,RPL3 (UniProt P39023),0.9 ± 0.067
5,UniProt P50851 and related entries,0.947 ± 0.031
6,UniProt P49023-2,0.981 ± 0.029
7,UniProt P36402-5,0.866 ± 0.16
8,GCLM (UniProt P48507),0.929 ± 0.054
9,UniProt P40763 and related entries,0.987 ± 0.077
10,RBM5 (UniProt P52756),1.13 ± 0.094
11,TXLNA (UniProt P40222),1.1 ± 0.053
12,UniProt P52739 and related entries,0.951 ± 0.11
13,FEN1 (UniProt P39748),1.041 ± 0.0066
14,MCM2 (UniProt P49736),0.921 ± 0.044
15,RPL29 (UniProt P47914),0.903 ± 0.27
16,UniProt P51812,0.952 ± 0.12
17,MAGEA9 (UniProt P43362),0.938 ± 0.092
18,UniProt P48729 and related entries,1.08 ± 0.14
19,UniProt P41134 and related entries,1.08 ± 0.24
20,UniProt P36639 and related entries,0.983 ± 0.056
21,CASP3 (UniProt P42574),0.963 ± 0.064
22,CCT4 (UniProt P50991),0.795 ± 0.12
23,RANBP2 (UniProt P49792),1.09 ± 0.073
24,UniProt P48960 and related entries,0.999 ± 0.049
25,PPOX (UniProt P50336),0.894 ± 0.18
26,HPCAL1 (UniProt P37235),0.955 ± 0.016
27,UniProt P51532-2|P51532-3|P51532-4|P51532-5|Q9HBD4 and related entries,1.08 ± 0.13

# An excerpt of these results, as tab-separated lines:
row	Target	NP40-soluble protein abundance
3	UniProt P49916 and related entries	1.073 ± 0.0018
4	RPL3 (UniProt P39023)	0.9 ± 0.067
